The target in the assay is adenine binding rat receptor (Rattus norvegicus, UniProt Q7TN49). The experiment in a line: [3H]adenine saturation binding on CHO membranes transiently transfected. As to conditions: transfected cells, 100 μM Gpp-NHp, single experiments; tested as the radiolabelled form; listed as [^3H] adenine.

Protein sequences, listed by entry. Tags and fused reporters are not part of them.
UniProt Q7TN49, whole entry: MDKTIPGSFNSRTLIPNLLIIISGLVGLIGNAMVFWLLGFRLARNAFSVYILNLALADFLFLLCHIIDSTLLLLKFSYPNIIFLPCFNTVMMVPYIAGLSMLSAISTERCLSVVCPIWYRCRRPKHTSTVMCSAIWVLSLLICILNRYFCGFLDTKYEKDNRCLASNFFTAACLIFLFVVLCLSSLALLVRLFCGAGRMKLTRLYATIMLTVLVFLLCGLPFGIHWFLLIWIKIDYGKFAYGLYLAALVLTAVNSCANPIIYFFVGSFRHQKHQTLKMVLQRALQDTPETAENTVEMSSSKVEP

For part of its entries the source gives two or more results. They are shown here; other results are not. An entry can have further records. The values listed for one entry appear to be repeats (runs, samples, wells or individuals).

With `Nc1ncnc2nc[nH]c12`, the Bmax was 12934 fmoles/mg protein and 31236 fmoles/mg protein.

Source of the values: patent US20030157516A1, “G protein coupled receptor” (priority 2000, published 2003).
